In all, about 59,000 compounds went through this assay and about 25 (0.04%) were called active. The shares of active, inactive and inconclusive entries below differ from those in the screen. How the calls were made is not given here.
Test: qHTS Assay for Spectroscopic Profiling in Resorufin Spectral Region
Settings: Compound fluorescence, resorufin region 547/598 nm, buffer; hits give high values
Source text: NIH Molecular Libraries Screening Centers Network [MLSCN] NIH Chemical Genomics Center [NCGC] […] Occasionally, the artifactual effect may originate from the compound#s own spectral or other biophysical properties which generally tend to track its assay concentration. Pre-screening/profiling the library with respect to the compounds# spectral properties should help one exclude false positives early on. While the most informative fluorescent profiling data set is obtained by performing a full excitation and emission scan of each well by using a monochromator-based plate reader, such an approach is practical only on a very limited scale as scanning each well requires long time. An alternative approach, applied here, is to perform plate reader scans using selected excitation and emission wavelength pairs to generate a multidimensional relational database that correlates compound concentration and the respective relative fluorescence intensity at a given wavelength set. A standard curve of resorufin present on each plate as six-point concentration series, was used to compute a normalized fluorescence response, termed dye-equivalent concentration, for each compound at each concentration.
NCGC Assay Protocol Summary: Buffer: 100 mM Tris buffer, pH 8.0 Dye standard plate: The wells in columns 1 through 4 of a Kalypsys polypropylene 1536-well compound plate were filled with standard solutions of fluorophore corresponding to the spectral region of interest. Solutions of resorufin were placed in the following wells: M1, N1: 3 mM, M2, N2: 300 uM, M3, N3: 30 uM, M4, N4: zero (DMSO), O1, P1: 3 uM, O2, P2: […], O3, P3: 300 nM, O4, P4: zero (DMSO). Assay Steps: Six uL of buffer were dispensed to 1536-well Greiner black plates. Compounds and dye standards (23 nL) were transferred via Kalypsys PinTool. The plates were incubated for 15 min at room temperature, and then read on ViewLux (Perkin-Elmer) High-throughput CCD imager using 547 nm and 598 nm excitation and emission filter set. Keywords: NIH Roadmap, MLSCN, MLI, MLSMR, qHTS, NCGC, Resorufin, Fluorescent Profiling.

Row | Compound | max dye-equivalent concentration
1 | N[C@H](Cc1ccc2oc3cc(=O)c4ccccc4c-3nc2c1)C(=O)O | inconclusive: 7.7 nM
2 | CCn1nc(-c2ccccc2)nc2c(=O)n(C)c(=O)nc1-2 | inactive
3 | CN1C[C@H](CO)C=C2c3cccc4[nH]cc(c34)C[C@H]21 | inactive
4 | Cc1cccn2c(=O)c3c(nc12)N1CCC(Cc2ccccc2)CC1C1(C3)C(=O)N(C)C(=O)N(C)C1=O (centres undefined) | inconclusive: 1.6 nM

— PubChem BioAssay AID588 (National Center for Advancing Translational Sciences (NCATS), 2007)
